Assay results reported in patent US20120121576A1.
No constants are given. Whether binding was seen depends on the method and setting. Some binding calls cover weakened binding; strength is not graded here.

By UniProt entry, the sequences of proteins in these tests, tags left out. Where a name states a change or a piece, a line headed by the entry shows the natural chain unless it says otherwise.
UniProt P27037: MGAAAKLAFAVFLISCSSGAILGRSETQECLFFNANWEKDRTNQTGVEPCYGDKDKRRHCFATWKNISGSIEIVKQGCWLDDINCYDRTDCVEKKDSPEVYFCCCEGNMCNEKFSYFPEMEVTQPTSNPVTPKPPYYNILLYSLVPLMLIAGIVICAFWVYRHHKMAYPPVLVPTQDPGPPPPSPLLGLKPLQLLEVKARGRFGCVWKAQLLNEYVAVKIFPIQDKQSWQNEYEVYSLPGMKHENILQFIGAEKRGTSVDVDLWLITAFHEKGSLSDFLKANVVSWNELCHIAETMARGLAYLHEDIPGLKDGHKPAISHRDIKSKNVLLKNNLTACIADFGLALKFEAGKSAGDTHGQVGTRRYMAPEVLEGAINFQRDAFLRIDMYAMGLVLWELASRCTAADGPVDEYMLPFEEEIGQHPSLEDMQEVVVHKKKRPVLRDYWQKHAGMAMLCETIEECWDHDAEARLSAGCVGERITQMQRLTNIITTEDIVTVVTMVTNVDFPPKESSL

Biological target: ActRIIA-Fc (ActRIIA-mFc, dimeric protein) (human) (UniProt P27037)
Assay: summary sentence after the examples; form of ActRIIA not named there

binding: binds
B1: Ab-14E1 (antibody 14E1; hybridoma subclone 14E1.H8.H1) (antibody, V domains shown)
VH: DVQLQESGPGLVKPSQSLSLTCSVTGYSITSGYYWNWIRQFPGNKLEWMGYISYDGSNNYNPSLINRISITRDTSKNQFFLKLNSVTTEDTATYFCASYAYRNDVRFAYWGQGTLVTVSA
VL: DIQMTQTTSSLSASLGDRVTISCRASQDISNFLNWYQQKPDGTVKLLIYFTSRLHSGVPSRFSGSGSGTDYSLTITNLEQEDIATYFCQQGNTLPWTFGGGTKLEIK
